# According to patent publication US8287850B2, “Conjugates of hydroxyalkyl starch and a protein, prepared by reductive amination” (Fresenius Kabi Deutschland GmbH, priority 2004, dated 2012):
# Some of these results come from one statement about several compounds together.
# B1: G-CSF/A33: G-CSF starting material, used for the conjugate of Example 2.5; purified hG-CSF (E. coli) (protein, UniProt P09919 31-207, looked up)
# Granulocyte …: TPLGPASSLPQSFLLKCLEQVRKIQGDGAALQEKLVSECATYKLCHPEELVLLGHSLGIPWAPLSSCPSQALQLAGCLSQLHSGLFLYQGLLQALEGISPELGPTLDTLQLDVADFATTIWQQMEELGMAPALQPTQGAMPAFASAFQRRAGGVLVASHLQSFLEVSYRVLRHLAQP
# B2: Neupogen: non-modified Neupogen (Amgen), rhG-CSF filgrastim, non-glycosylated, E. coli (protein, UniProt P09919 31-207, looked up)
# Granulocyte …: B1 Granulocyte …
# modifications: filgrastim, N-terminal Met
# notes: non-modified Neupogen (Amgen), rhG-CSF filgrastim, non-glycosylated, E. coli
# B3: G-CSF/A32: G-CSF conjugate as prepared according to Example 2.5 (aldehydo-HES10/0.4 of Example 1.3) (conjugate, UniProt P09919 31-207, looked up)
# Granulocyte …: B1 Granulocyte …
# modifications: hydroxyethyl starch conjugate HES10/0.4
# B4: Neulasta: non-modified Neulasta (Amgen) (conjugate, UniProt P09919 31-207, looked up)
# Granulocyte …: B1 Granulocyte …
# modifications: pegfilgrastim; 20 kDa PEG
# Test system: mouse NFS-60 cells
# Assay: Mitogenicity of G-CSF variants for mouse NFS-60 cells (Example 4)
# Assay type: cell-based
# Details: stimulation of NFS-60 cell number, 3 days at 37° C.
row,Molecule,ED50
1,B1,0.005 to 0.01 ng/mL
2,B2,0.005 to 0.01 ng/mL
3,B3,0.01 to 0.025 ng/mL
4,B4,0.01 to 0.025 ng/mL
